## Percent effect of library compounds

Amino acid sequences for entries named in this document (tags omitted).
UniProt P9WFT3, whole entry: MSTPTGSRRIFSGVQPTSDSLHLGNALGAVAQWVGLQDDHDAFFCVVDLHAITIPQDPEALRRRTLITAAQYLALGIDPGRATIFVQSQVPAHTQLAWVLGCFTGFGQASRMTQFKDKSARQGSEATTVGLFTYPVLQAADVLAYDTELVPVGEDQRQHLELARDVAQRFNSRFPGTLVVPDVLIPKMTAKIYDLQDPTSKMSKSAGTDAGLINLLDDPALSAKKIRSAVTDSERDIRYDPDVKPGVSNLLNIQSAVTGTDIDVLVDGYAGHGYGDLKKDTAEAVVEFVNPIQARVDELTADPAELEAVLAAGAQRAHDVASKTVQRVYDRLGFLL
UniProt P9WPC5, whole entry: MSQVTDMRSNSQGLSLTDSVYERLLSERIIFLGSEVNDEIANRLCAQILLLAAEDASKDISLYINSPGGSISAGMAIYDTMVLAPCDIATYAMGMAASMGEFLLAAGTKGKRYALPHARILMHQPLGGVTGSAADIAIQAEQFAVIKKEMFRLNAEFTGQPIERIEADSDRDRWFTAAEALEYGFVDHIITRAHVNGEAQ
UniProt P9WPC3, whole entry partner: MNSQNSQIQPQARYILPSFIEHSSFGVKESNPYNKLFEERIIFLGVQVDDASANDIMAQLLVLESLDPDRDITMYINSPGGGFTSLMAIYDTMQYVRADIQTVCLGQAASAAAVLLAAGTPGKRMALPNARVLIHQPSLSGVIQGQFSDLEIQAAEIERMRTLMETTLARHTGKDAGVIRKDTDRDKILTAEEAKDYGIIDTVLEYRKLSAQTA
UniProt P9WNZ1, whole entry: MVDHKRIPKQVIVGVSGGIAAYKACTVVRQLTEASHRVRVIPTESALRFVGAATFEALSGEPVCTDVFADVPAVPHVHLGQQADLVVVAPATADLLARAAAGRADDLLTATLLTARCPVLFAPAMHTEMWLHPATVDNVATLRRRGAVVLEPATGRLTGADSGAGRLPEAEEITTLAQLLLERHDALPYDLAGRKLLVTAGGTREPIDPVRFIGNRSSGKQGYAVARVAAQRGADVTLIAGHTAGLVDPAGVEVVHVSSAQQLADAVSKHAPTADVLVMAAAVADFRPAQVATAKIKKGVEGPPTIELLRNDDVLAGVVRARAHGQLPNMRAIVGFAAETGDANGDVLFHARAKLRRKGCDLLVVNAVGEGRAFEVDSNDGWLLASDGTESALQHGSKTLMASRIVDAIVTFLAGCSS
UniProt I6X8D2, whole entry: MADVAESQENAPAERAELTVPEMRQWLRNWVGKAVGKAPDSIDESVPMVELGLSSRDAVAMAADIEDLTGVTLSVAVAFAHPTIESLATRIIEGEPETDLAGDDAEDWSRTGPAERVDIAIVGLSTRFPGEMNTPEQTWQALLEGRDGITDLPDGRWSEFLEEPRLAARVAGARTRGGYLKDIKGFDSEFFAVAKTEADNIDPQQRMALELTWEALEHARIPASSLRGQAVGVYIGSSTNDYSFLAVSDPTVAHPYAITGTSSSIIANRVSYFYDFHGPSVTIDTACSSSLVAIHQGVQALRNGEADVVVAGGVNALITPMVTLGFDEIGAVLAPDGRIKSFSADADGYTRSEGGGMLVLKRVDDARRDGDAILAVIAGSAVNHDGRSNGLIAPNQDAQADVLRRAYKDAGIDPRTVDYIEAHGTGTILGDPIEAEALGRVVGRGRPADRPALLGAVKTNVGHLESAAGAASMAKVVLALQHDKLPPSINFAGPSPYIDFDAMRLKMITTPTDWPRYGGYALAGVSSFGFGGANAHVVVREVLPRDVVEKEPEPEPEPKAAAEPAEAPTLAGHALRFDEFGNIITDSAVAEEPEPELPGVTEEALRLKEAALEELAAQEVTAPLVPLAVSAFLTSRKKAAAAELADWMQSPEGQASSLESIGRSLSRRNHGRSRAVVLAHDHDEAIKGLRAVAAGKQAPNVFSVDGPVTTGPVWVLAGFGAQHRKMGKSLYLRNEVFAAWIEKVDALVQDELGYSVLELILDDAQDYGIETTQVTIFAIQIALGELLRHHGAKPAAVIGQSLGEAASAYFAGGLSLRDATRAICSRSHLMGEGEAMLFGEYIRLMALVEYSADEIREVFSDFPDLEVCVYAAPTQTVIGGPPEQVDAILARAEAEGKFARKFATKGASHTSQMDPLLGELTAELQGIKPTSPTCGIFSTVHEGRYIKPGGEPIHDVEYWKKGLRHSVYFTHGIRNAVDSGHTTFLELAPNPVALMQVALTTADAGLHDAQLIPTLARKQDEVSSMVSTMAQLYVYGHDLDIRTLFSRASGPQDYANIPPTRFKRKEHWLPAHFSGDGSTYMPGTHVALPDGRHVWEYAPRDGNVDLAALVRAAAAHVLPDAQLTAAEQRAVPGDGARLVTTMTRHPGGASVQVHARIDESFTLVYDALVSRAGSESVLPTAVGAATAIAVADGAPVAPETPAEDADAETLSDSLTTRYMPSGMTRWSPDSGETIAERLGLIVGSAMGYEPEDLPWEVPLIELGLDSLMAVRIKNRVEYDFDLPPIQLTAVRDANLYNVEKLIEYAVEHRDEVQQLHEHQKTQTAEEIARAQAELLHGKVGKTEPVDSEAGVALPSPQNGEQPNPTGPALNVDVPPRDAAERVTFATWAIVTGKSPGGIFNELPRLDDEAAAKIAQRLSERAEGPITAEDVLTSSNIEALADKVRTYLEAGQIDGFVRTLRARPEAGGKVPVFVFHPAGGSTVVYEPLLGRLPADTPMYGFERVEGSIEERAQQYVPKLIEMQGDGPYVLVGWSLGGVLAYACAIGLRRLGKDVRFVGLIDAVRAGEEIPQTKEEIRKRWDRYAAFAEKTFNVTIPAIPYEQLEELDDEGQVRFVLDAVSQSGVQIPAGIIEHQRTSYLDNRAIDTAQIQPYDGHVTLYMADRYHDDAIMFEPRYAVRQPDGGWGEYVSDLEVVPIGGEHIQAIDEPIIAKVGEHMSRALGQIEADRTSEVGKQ

From ChEMBL document CHEMBL3988442, “University of Dundee, Small-Polar-MMV Screening Library” (2021).

MtTrpRS: 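Tryptophan-tRNA ligase, Mycobacterium tuberculosis (UniProt P9WFT3). Enzyme assay of tryptophanyl-tRNA synthetase; the read-out is not stated. Compounds at 10 µM. Higher most likely means stronger inhibition; the record gives no direction and few retests gave an IC50. About 65,000 compounds were tested under these conditions; 0.098% (about 64) showed 50% or more at least once.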
Toxoplasma: 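Assay of Toxoplasma gondii numbers, read through their beta-galactosidase reporter with a colour substrate. Compounds at 10 µM. Higher reads as fewer parasites (inferred from which compounds were picked for retests). Size under these conditions: about 67,000 compounds, about 260 of them at 50% or above in at least one test.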
ClpP1P2: 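ClpP1P2, Mycobacterium tuberculosis (UniProt P9WPC5 and UniProt P9WPC3). Protease assay of ClpP1P2, read by the AMC dye that it sets free. Concentration: 50 µM. Higher reads as stronger inhibition, judged from the few compounds that gave an IC50. Most other retested compounds had strongly negative values. Size under these conditions: about 69,000 compounds, about 10 of them at 50% or above in at least one test.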
CoaBC: 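Enzyme assay of CoaBC with a phosphate dye (Biomol Green) read at 650 nm. Target: Coenzyme A biosynthesis protein CoaBC, Mycobacterium tuberculosis (UniProt P9WNZ1). Concentration: 30 µM. Higher reads as stronger inhibition, judged from the few compounds that gave an IC50. Most strong results did not repeat in a second test. About 67,000 compounds were tested under these conditions; 0.06% (about 40) showed 50% or more at least once.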
Pks13 thioesterase: 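Enzyme assay of the thioesterase domain of polyketide synthase 13; the read-out is not stated. Target: Polyketide synthase Pks13, Mycobacterium tuberculosis (UniProt I6X8D2). Concentration: 30 µM. The record gives no direction; the compounds picked for IC50 retests had high values, so higher reads as stronger inhibition. Of about 67,000 compounds tested this way, about 300 (0.46%) reached 50% or more in at least one test.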

Results are given as percent effect.
The record does not define 0% and 100%; most values in the screen are far below 50% and negative numbers occur (in some assays of this library far below -100).
Compounds were drawn at random from those tested, without regard to their results.
A dash means the value is not listed here; it may have been measured.

| Compound | MtTrpRS | Toxoplasma | ClpP1P2 | CoaBC | Pks13 thioesterase |
|---|---|---|---|---|---|
| `N#Cc1cc(NC(=O)C2CC=CC2)ccc1N1CCC(O)CC1` | -1.161% | 3.347% | -11.36% | 2.345% | -4.275% |
| `[H][C@]12CO[C@H](CNS(C)(=O)=O)[C@@]1([H])CCN(Cc1cccnc1)C2` | - | 18.85% | - | - | - |
| `O=C(O)C(F)(F)F.O=C(O)C(F)(F)F.[H][C@@]12COC[C@]1([H])[C@@H](OCCN(C)C)CN2Cc1ccco1` | - | -34.62% | - | - | - |
| `COc1ccccc1CCC(=O)N1C[C@H](c2ccccc2)[C@@H](N)C1` | -0.677% | 2.426% | -5.317% | -8.678% | -33.27% |
| `CCCS(=O)(=O)N1CCC2(CN(c3ccsc3)C(=O)CN2C)C1.O=C(O)C(F)(F)F` (stereo not drawn) | - | -2.878% | - | - | - |
| `CCCC1CCCN(C(=O)Nc2cccnc2OC)CC1` (stereo not drawn) | 0.1564% | 4.389% | 0.4743% | -4.619% | - |
| `CCCc1n[nH]c(=O)n1Cc1ccc(OC)cc1` | 10.46% | -9.717% | -1.369% | -5.368% | -18.06% |
| `CN(C)Cc1ccnc(C2CN(CCCc3ccccc3)CCO2)n1` (stereo not drawn) | - | 0.1407% | -10.8% | 5.811% | 1.085% |
| `O=C(O)C(F)(F)F.O=S(=O)(c1cccs1)N1CCCn2nnc(CN3CCCCC3)c2C1` | - | 6.303% | - | - | - |
| `O=C(O)C(F)(F)F.O=C1NC2(CCN(CC3CC3)CC2)CC1c1ccccc1` (stereo not drawn) | - | 7.055% | - | - | - |
| `Cc1c[nH]c(CN2CCOC(c3ccc(Cl)c(Cl)c3)C2)c(C)c1=O` (stereo not drawn) | -0.6988% | -5.647% | 2.612% | 4.176% | -30.52% |
| `Cn1c(CCN2CCN(c3ccc(O)cc3)CC2)nc2ccccc21` | -9.314% | 79.1% | 7.436% | 1.768% | -29.44% |
| `CC(C)S(=O)(=O)c1ccccc1C(=O)NCC1Cc2ccccc2O1` (stereo not drawn) | 1.331% | 6.804% | -2.717% | 4.156% | -24.2% |
| `COCCS(=O)(=O)Nc1ccc(-n2nccc2C(F)(F)F)cc1` | -1.283% | -0.5682% | -0.8842% | -7.642% | -19.09% |
| `CCOC(=O)CNC(=O)c1scnc1C` | 1.38% | 5.578% | -11.97% | -4.673% | -11.25% |
| `c1cc(-c2nnn3c2COC(CNCC2CCOCC2)C3)ccn1` (stereo not drawn) | 24.15% | -5.559% | 13.81% | 9.221% | -3.509% |
| `CC(C)(C)c1noc(CN2CCCCC2Cn2cncn2)n1` (stereo not drawn) | 5.712% | -15.73% | -7.108% | 6.464% | -33.06% |
| `CCN(CC)C(=O)Cn1c(C)cc2nc(SC)n(CC(C)C)c(=O)c21` | -2.918% | 2.69% | -4.351% | -1.882% | -8.656% |
| `COc1ncccc1C1CC(=O)NCc2nc3sccn3c21` (stereo not drawn) | -1.592% | -18.38% | -23.61% | 3.602% | -3.974% |
| `CC(=O)NCC(=O)NC1CCc2c(ccc(=O)n2CC2CC2)C1` (stereo not drawn) | -1.481% | -20.41% | -8.824% | 1.25% | -8% |
| `Cc1nc(C)c(CCNc2ccc(S(N)(=O)=O)cc2C#N)s1` | 1.05% | 9.539% | -16.95% | 2.778% | -6.704% |
| `COCC(NC(=O)c1cc(NC(C)=O)ccc1Cl)c1ccccn1` (stereo not drawn) | 4.023% | 11.3% | 0.05269% | -5.528% | 5.407% |
| `O=C(NCCc1cccs1)[C@]12COC[C@H]1CN(Cc1ccncc1)C2` | -5.805% | - | -7.095% | 3.202% | -7.774% |
| `CCc1oc(C(=O)N(C)Cc2nonc2C)cc1CN(CC)CC` | 3.172% | 4.646% | -2.388% | 1.205% | 0.004873% |
| `CSC(C)C(=O)N(C)C1CCN(c2ccc(Cl)cc2)CC1` (stereo not drawn) | -6.727% | -9.425% | 1.2% | -5.072% | 1.36% |
| `O=C(O)C(F)(F)F.[H][C@]12CN(Cc3ccccc3Cl)C[C@@]1([H])OCCN(C(C)=O)C2` | - | -8.961% | - | - | - |
| `CCOc1ncccc1NC(=O)NC1CCCN(c2ncccn2)C1` (stereo not drawn) | -1.541% | -3.337% | -2.764% | 2.635% | -2.515% |
| `CC(C)Oc1ncccc1CNC(=O)c1cc[nH]n1` | 2.426% | 1.436% | 17.29% | 4.864% | -6.338% |
| `CCOC(C)c1nc(CN2CCN(c3nccc(C)n3)CC2)cs1` (stereo not drawn) | -0.8514% | -1.847% | -13.94% | 1.919% | -23.48% |
| `C[C@@H]1CN(CCc2ccccc2)C[C@]12CCN(CC(=O)N(C)C)C2=O` | -1.89% | - | 0.1905% | 5.019% | -29.04% |
| `COc1cccc(-c2noc(C3CCN(Cc4ccccc4F)C3)n2)c1.Cl` (stereo not drawn) | - | 11.37% | - | - | - |
| `Cc1ccc2cnn(CCC(=O)Nc3nc(C)c(C)s3)c2c1` | -1.943% | 11.11% | 9.506% | -1.386% | 13.91% |
| `COCCNC(=O)NCCc1ccn(-c2ccccc2)n1` | -1.657% | -1.969% | 2.683% | 4.7% | -9.442% |
| `O=C1CCc2cc(C(=O)NCc3ccc(-n4cncn4)nc3)ccc2N1` | -8.529% | 0.05744% | 2.783% | 2.017% | -2.714% |
| `CN(C)c1cccc(C(=O)N2CCCSCC2CN2CCCC2)c1` (stereo not drawn) | -2.205% | 11.52% | -10.47% | 1.449% | -14.29% |
| `CCc1nccn1C1CCCN(C(=O)c2ccc3c(c2)nnn3C)C1` (stereo not drawn) | -0.4869% | 4.615% | -1.319% | 1.419% | -6.872% |
| `Cc1nc2[nH]cnc(NCCN3CCOCC3)c-2n1` | -3.172% | -22.27% | 4.255% | 2.169% | -10.67% |
| `CN(C)CCN1C2(CCN(Cc3nccs3)C2)c2ccccc2S1(=O)=O.O=C(O)C(F)(F)F.O=C(O)C(F)(F)F` (stereo not drawn) | - | -6.21% | - | - | - |
| `O=C1COc2ccc(C(=O)N3CCCC(n4ccnc4)C3)cc2N1` (stereo not drawn) | -0.8475% | 14.06% | -19.44% | -8.964% | -29.44% |
| `O=C(NC1CC1)c1cnc(-c2noc3cc(N4CCCCC4)ccc23)s1` | -4.554% | -1.755% | -12.17% | - | -11.81% |
| `O=c1c(NCc2ccncc2)c(NCC(O)CN2CCOCC2)c1=O` (stereo not drawn) | -1.331% | 1.506% | -0.9636% | 1.263% | -5.273% |
| `COc1ccccc1CN1C(=O)O[C@@H]2CN(S(=O)(=O)N(C)C)C[C@@H]21` | -3.48% | - | -1.649% | 4.497% | -19.93% |
| `C[C@@H]1CN2C[C@H](O)CC2CN1Cc1ccncc1` (stereo partly drawn) | -6.182% | - | -9.702% | 5.938% | 4.444% |
| `CCN(CC)C(=O)c1cc(C2CCCN2C)ccn1` (stereo not drawn) | -3.094% | - | 2.258% | 11.11% | 88.53% |
| `Cn1cc(C#N)cc1C(=O)Nc1ccc(CN2CCOCC2)cn1` | 2.726% | 1.063% | -9.156% | -1.582% | -24.87% |
| `O=C(O)C(F)(F)F.O=C(O)C(F)(F)F.[H][C@@]12CN(Cc3nccs3)C[C@@H](C(=O)NC3CCCC3)[C@]1([H])CCO2` | - | 0.1664% | - | - | - |
| `Cc1cc(I)c2c(c1)C(=O)C(CN1CCCC1)(CN1CCCC1)CO2` | - | -11.86% | -2.645% | 1.595% | 23.07% |
| `COCCn1cncc1CN1CCCC(C(=O)Cc2ccccc2)C1` (stereo not drawn) | -2.52% | 26.25% | -16.02% | 2.302% | -36.04% |
| `CC(=O)N1CC2(CCCC2)c2ccccc21` | -1.961% | 0.7956% | -4.08% | -12.05% | -28.94% |
| `Cc1nc(NCc2ccc(C)o2)cc(C(=O)N2CCOCC2)n1` | -1.408% | 8.291% | -2.886% | 6.364% | -23.64% |
| `CCc1nc(CN2CCCC(NCc3cnc(C)s3)C2)no1` (stereo not drawn) | 4.191% | 2.967% | 12% | 6.378% | -19.44% |
| `OC(CN1CCN(Cc2ccc(F)cc2)CC1)C1CC1` (stereo not drawn) | 3.635% | - | -0.925% | -15.14% | -12.92% |
| `CSc1ccc(C(=O)C2CCCN(C(=O)CCCn3cncn3)C2)cc1` (stereo not drawn) | 1.06% | -16.55% | -11.22% | 8.414% | 3.09% |
| `Cc1nc(NCCN2CCCC2=O)cc(C2CN(C)CCO2)n1` (stereo not drawn) | -2.137% | -1.203% | -1.062% | 2.74% | -11.66% |
| `CCCc1noc(C(C)N2CCN(Cc3nc(C)c(C)o3)CC2)n1` (stereo not drawn) | -2.184% | 0.6103% | -25.9% | 2.558% | -6.263% |
| `CN(C)CC1CN(Cc2csc(C3CCCC3)n2)CCO1` (stereo not drawn) | 0.8772% | -7.596% | -1.874% | 0.5008% | -10.49% |
| `Cn1ncc(NCc2cc(F)cc(F)c2)c(Cl)c1=O` | 0.08446% | 14.64% | 3.915% | 4.042% | 17.18% |
| `CCOc1ccc(C#N)cc1NCC(=O)NC(=O)Nc1ccccc1` | -4.993% | -9.555% | -1.354% | 17.98% | 10.68% |
| `O=C(NCC(F)(F)F)c1ccc(-c2ccco2)[nH]c1=O` | -8.475% | -10.75% | -189.5% | -2.678% | -0.2346% |
| `CC(C)c1ccc(C(=O)N2CCOCC2CC(=O)c2ccco2)cn1` (stereo not drawn) | -0.1467% | -0.1331% | 3.221% | 0.6017% | -2.733% |
| `C[C@@H]1C[C@H](C(F)(F)F)n2nc(C3CCN(S(C)(=O)=O)CC3)cc2N1` | - | 10.32% | -8.824% | -0.8674% | -5.557% |
| `Cc1nc(C)n(CC2CCCN(Cc3nc(C4CC4)no3)C2)n1` (stereo not drawn) | -0.2347% | 0.05744% | 15.47% | 1.779% | -9.079% |

6 of the entries, repeated:

O=C(NCCc1cccs1)[C@]12COC[C@H]1CN(Cc1ccncc1)C2 gave MtTrpRS: -5.805%; ClpP1P2: -7.095%; CoaBC: 3.202%; Pks13 thioesterase: -7.774%.
O=C(O)C(F)(F)F.O=C(O)C(F)(F)F.[H][C@@]12COC[C@]1([H])[C@@H](OCCN(C)C)CN2Cc1ccco1 gave Toxoplasma: -34.62%.
N#Cc1cc(NC(=O)C2CC=CC2)ccc1N1CCC(O)CC1 gave MtTrpRS: -1.161%; Toxoplasma: 3.347%; ClpP1P2: -11.36%; CoaBC: 2.345%; Pks13 thioesterase: -4.275%.
CCCc1n[nH]c(=O)n1Cc1ccc(OC)cc1 gave MtTrpRS: 10.46%; Toxoplasma: -9.717%; ClpP1P2: -1.369%; CoaBC: -5.368%; Pks13 thioesterase: -18.06%.
Cc1nc(C)n(CC2CCCN(Cc3nc(C4CC4)no3)C2)n1 (stereo not drawn) gave MtTrpRS: -0.2347%; Toxoplasma: 0.05744%; ClpP1P2: 15.47%; CoaBC: 1.779%; Pks13 thioesterase: -9.079%.
COc1ccccc1CN1C(=O)O[C@@H]2CN(S(=O)(=O)N(C)C)C[C@@H]21 gave MtTrpRS: -3.48%; ClpP1P2: -1.649%; CoaBC: 4.497%; Pks13 thioesterase: -19.93%.